The record followed here is the M2OR odorant receptor database.

Chains of the proteins cited; added tags and fusions are not shown. A line that says so, or that is headed by a name, gives the form on record, which may keep a tag or linker.
OR1E2, as listed by the source: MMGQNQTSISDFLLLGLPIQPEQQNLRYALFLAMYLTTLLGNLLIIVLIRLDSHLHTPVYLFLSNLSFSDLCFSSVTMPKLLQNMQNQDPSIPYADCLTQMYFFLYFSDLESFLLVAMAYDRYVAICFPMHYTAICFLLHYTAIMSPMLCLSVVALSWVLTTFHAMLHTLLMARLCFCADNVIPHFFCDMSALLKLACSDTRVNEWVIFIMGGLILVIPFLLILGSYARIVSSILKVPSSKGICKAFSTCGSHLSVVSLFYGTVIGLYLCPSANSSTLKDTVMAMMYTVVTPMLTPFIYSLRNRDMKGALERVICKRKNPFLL
OR1D2, as listed by the source: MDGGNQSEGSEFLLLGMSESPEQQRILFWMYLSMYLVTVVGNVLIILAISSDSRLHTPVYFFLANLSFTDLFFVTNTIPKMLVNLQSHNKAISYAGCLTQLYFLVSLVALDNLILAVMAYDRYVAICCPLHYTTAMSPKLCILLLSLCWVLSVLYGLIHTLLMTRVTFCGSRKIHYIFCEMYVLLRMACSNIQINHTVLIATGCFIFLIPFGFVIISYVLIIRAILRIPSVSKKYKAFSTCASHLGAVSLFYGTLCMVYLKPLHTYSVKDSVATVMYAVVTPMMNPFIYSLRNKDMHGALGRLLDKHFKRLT

Substitutions are numbered along the chain they refer to. The list shows a part of the results, in another mix than the full data. Calls are pooled over several reports, among them a noisy single-well screen. This is one part of the list.

Common to all, as to conditions: stereoisomer not certain
Test [1] addresses T1, OR1D5 (Homo sapiens) (UniProt P58170).
T1 sequence (whole entry): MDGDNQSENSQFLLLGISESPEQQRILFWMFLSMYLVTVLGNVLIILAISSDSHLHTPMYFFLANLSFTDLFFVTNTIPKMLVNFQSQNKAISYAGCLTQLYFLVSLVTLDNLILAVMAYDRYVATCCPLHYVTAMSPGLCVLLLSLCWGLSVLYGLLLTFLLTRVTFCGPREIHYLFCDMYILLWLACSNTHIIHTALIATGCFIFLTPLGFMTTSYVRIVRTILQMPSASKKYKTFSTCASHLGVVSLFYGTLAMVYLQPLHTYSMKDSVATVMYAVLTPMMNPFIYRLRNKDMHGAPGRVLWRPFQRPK
The essentials:
(§1)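 Values were gathered from published papers (main text and supplementary material), with extra details requested from the original authors when needed, and checked for typos and inconsistencies. Each receptor–molecule pair is called responsive (active) if the original authors judged the measured signal statistically different from baseline, and non-responsive (inactive) otherwise. Assay methods varied by source, often transient mammalian cell-line luciferase assays. Recorded details include cell line, G-protein, co-transfected protein and tags.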

In test [2] the test system is T2, OR1D5.
T2 sequence (whole entry): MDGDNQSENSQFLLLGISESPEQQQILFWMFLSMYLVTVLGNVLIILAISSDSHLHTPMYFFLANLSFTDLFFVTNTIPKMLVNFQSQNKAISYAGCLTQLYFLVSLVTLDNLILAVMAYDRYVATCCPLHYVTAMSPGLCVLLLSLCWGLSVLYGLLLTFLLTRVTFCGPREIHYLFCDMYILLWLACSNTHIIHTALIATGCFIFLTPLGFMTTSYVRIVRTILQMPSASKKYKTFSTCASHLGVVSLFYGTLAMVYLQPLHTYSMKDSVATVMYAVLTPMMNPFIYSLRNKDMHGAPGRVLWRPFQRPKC
In a few lines: as §1

For test [3], the system named is T3, OR1E1.
T3 sequence (whole entry): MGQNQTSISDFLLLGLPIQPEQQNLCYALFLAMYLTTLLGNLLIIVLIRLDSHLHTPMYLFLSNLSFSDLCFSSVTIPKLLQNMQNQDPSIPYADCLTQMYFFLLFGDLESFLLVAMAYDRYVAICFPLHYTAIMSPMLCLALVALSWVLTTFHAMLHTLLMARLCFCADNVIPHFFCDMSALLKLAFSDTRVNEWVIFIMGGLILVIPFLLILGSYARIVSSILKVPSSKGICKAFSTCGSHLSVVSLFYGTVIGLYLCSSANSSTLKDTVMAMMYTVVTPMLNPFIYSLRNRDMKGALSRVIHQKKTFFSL
In a few lines: as §1

The subject of test [4] is T4, OR1E1.
T4 sequence (whole entry): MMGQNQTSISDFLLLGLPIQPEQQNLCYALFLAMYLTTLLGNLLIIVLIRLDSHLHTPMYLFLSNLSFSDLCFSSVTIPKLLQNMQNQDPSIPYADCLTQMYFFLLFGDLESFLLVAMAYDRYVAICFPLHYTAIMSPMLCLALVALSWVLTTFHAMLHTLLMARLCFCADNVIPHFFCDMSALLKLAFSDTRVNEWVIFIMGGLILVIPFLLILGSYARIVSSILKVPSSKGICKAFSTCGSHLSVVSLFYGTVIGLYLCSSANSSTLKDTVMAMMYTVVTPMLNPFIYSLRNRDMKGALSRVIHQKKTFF
In a few lines:
as §1
This is another data set of the same source.

The target of test [5] is T5, OR1E2 (Homo sapiens) (UniProt P47887).
T5 sequence (whole entry): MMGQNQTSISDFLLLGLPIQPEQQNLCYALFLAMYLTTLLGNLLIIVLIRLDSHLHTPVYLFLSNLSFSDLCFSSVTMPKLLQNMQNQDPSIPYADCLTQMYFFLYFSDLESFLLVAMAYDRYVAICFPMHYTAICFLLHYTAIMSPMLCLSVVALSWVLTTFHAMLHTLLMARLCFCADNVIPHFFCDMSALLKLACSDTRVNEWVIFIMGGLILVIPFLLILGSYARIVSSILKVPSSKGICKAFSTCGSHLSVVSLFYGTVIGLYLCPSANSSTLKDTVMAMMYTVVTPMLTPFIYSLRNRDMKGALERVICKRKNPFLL
The essentials:
as §1

Test [6] concerns T6, OR1E2.
T6 sequence (whole entry): T5 sequence (whole entry) with C27R
In a few lines: as §1

Test [7] relates to T7, OR1F1.
T7 sequence (whole entry): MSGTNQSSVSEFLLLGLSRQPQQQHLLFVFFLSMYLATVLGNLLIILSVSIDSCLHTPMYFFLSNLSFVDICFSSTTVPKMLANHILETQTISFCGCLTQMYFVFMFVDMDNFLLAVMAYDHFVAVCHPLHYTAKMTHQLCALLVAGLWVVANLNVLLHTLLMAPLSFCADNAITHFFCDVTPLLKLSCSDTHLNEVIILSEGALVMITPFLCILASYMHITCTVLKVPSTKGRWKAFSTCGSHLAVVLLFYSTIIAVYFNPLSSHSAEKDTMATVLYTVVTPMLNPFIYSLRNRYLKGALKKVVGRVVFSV
The essentials: as §1

Test [8] relates to T8, OR1FC.
T8 sequence (whole entry): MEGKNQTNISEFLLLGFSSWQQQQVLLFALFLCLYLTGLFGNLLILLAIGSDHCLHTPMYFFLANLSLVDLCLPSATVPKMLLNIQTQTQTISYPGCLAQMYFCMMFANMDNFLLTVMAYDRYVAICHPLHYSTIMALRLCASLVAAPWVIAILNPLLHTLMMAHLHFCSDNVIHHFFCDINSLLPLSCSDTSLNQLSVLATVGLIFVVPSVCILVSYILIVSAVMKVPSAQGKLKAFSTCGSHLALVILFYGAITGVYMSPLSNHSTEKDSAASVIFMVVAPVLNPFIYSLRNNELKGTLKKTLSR
The essentials: as §1

For test [9], the target named is T9, OR1G1 (Homo sapiens) (UniProt P47890).
T9 sequence (whole entry): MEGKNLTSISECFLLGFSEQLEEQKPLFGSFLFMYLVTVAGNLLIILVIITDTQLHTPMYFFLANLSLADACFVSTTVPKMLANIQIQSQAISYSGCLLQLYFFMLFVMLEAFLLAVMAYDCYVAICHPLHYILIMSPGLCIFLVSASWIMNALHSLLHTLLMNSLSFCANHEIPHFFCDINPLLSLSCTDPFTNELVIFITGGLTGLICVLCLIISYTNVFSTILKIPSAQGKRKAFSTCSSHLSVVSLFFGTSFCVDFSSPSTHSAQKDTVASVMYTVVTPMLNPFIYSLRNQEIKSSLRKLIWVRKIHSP
The essentials: as §1

For test [10], the system named is T10, OR1I1.
T10 sequence (whole entry): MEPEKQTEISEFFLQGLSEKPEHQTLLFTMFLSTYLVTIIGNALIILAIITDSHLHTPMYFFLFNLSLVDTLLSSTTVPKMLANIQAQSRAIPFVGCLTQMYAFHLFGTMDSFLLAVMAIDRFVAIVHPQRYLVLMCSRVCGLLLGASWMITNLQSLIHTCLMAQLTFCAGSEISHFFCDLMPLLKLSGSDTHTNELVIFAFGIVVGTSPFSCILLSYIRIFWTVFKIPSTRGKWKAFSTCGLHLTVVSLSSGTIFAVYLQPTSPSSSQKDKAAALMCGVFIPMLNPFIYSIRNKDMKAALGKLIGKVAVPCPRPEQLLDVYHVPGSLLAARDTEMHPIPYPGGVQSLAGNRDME
The essentials:
as §1

The target of test [11] is T11, OR1J1 (Homo sapiens) (UniProt Q8NGS3).
T11 sequence (whole entry): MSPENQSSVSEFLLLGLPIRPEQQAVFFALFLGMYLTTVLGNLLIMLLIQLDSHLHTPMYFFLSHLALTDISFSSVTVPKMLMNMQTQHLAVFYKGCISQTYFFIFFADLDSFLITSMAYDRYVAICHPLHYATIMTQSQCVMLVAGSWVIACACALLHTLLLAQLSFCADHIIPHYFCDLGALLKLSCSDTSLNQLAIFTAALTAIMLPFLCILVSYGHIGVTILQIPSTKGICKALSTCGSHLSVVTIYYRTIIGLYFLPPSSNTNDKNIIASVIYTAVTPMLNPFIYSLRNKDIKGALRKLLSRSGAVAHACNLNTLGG
In a few lines:
as §1

Test [12] deals with T12, OR1J2 (Homo sapiens) (UniProt Q8NGS2).
T12 sequence (whole entry): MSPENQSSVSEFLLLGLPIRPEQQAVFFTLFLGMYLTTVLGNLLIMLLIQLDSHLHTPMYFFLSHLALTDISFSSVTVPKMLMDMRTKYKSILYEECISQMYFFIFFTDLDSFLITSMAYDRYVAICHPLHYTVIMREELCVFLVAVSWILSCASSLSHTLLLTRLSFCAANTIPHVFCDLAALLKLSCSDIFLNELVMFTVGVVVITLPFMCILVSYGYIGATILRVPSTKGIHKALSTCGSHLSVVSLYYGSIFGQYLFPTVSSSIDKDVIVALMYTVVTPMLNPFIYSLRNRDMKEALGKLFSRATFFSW
In a few lines: as §1

For test [13], the target named is T13, OR1J4 (Homo sapiens) (UniProt Q8NGS1).
T13 sequence (whole entry): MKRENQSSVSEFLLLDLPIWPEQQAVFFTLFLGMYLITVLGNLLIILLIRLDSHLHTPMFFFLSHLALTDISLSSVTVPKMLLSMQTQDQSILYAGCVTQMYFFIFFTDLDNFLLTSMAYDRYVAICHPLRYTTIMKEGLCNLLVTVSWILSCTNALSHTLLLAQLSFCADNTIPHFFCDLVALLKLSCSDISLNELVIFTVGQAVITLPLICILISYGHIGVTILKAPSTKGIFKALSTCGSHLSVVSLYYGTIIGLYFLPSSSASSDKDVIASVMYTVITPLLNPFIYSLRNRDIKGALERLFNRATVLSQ
The essentials:
as §1

Test [14] has as its target T14, OR1K1 (Homo sapiens) (UniProt Q8NGR3).
T14 sequence (whole entry): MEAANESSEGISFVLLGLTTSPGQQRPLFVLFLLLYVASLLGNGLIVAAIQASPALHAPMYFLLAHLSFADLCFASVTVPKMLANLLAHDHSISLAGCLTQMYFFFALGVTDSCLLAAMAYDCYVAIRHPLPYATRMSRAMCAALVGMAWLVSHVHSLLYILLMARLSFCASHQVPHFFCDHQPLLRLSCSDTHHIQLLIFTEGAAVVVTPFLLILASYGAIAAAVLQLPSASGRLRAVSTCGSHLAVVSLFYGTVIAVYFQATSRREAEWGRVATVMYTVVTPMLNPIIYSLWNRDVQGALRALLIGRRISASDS
The essentials:
as §1

The subject of test [15] is OR1D2. The essentials: as §1
The subject of test [16] is OR1D2. The essentials: as §1
The source holds these as a separate data set.

For `CC1CCC(C(C)C)C(O)C1` (stereo unspecified), the “odorant receptor agonist call” value in test [1], in test [2], in [3], in test [4], in test [6] and in test [7] was “inactive” in each case. In addition, the “odorant receptor agonist call” value in test [8], in test [11], in test [12], in test [13] and in test [14] was “inactive” in each case. In addition, the “odorant receptor agonist call” value in test [5], in [9] and in [10] was “active” in each case.

Consider `CC(=O)OCC=C(C)CCC=C(C)C`, for which the “odorant receptor agonist call” value in [15], in [2] and in test [8] was “active” each time. The “odorant receptor agonist call” value in test [16], in test [1], in test [3], in test [4], in test [5] and in test [6] was “inactive” each time. Besides, the “odorant receptor agonist call” value in test [7], in test [9], in test [10], in [11], in test [12] and in [13] was “inactive” each time. Further, in [14], the “odorant receptor agonist call” value was “inactive”.

Turning to `CCCCCC(C)=O`, the “odorant receptor agonist call” value in [1], in test [3], in [4], in test [5], in test [6] and in test [7] was “inactive” each time. Also, the “odorant receptor agonist call” value in [9], in [10], in test [12], in [13] and in test [14] was “inactive” in each case.
